Values from PubChem BioAssay AID504793 (Drosophila RNAi Screening Center, 2011).

Test: 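Genes required for cells to halt at G2/M after double-strand DNA breaks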 (primary screen)
Cells: Drosophila S2R+ cells
Reagent: long dsRNA against Drosophila genes, about 0.25 µg dsRNA per well
Time to read-out: 4 days of dsRNA, then 4 hours of drug before read-out
Treatment: doxorubicin 0.5 µM for 4 hours to cause double-strand breaks, in cells also given a low, harmless dose of dsRNA against nbs to sensitise the assay
Read-out: 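Mitotic index as the number of phospho-histone H3-positive cells in each well following doxorubicin, given as raw counts without normalisation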
Reading the numbers: mitotic cells: higher = more cells in mitosis, weaker G2 arrest
Call rule: 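Genes are called active only when high mitotic counts were reproduced with independent dsRNAs and mitosis was checked for delay without damage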
Meaning of the calls: active = confirmed in follow-up tests; inactive = not confirmed
The screen tested about 23,000 reagents; this is an unselected part of those with a known target gene and a result. Of all reagents, 62 (0.27%) are marked active. 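Calls come from follow-up tests whose scores are not deposited, so confirmed genes may have low counts here; counts are not normalised per plate.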 Raw values are not corrected between plates. A plus sign joins genes that one reagent is predicted to hit.

no.	target	dsRNA	mitotic cells, replicate 1	mitotic cells, replicate 2	call
1	CG31313	DRSC13044	12		inactive
2	lectin-46Ca	DRSC06612	6		inactive
3	lectin-46Ca	DRSC25469	6		inactive
4	Or65a	DRSC08808	3		inactive
5	Sec61beta	DRSC07548	9		inactive
6	Sec61beta	DRSC21512	11		inactive
7	Sec61beta	DRSC28915	4		inactive
8	wek	DRSC03561	3		inactive
9	CG31869	DRSC02582	2		inactive
10	CG31869	DRSC02674	5		inactive
11	bsh	DRSC03498	7		inactive
12	bsh	DRSC25413	6		inactive
13	mRpS18B	DRSC02107	6		inactive
14	mTerf5	DRSC16209	3		inactive
15	Ltn1	DRSC11056	3		inactive
16	Ltn1	DRSC11058	7		inactive
17	Vsx1	DRSC23004	6		inactive
18	Vsx1	DRSC25808	7		inactive
19	Jarid2	DRSC10372	9		inactive
20	CG18265	DRSC10310	5		inactive
21	CG31807	DRSC01550	3		inactive
22	RtGEF	DRSC03604	5		inactive
23	RtGEF	DRSC22207	17		inactive
24	CG10514	DRSC14249	11		inactive
25	CG10514	DRSC28098	8		inactive
26	Mdr65	DRSC11220	7	11	inactive
27	hry	DRSC23249	13		inactive
28	hry	DRSC30106	9		inactive
29	CG30048	DRSC22205	13		inactive
30	l(2)41Ab	DRSC21007	9		inactive
31	TpnC41C	DRSC04916	4		inactive
32	CG9988	DRSC16587	14		inactive
33	Grip71	DRSC02042	47		inactive
34	Rga	DRSC12364	6		inactive
35	Rga	DRSC29179	10		inactive
36	net	DRSC00309	6		inactive
37	r	DRSC19813	23		inactive
38	r	DRSC19814	11		inactive
39	r	DRSC39150	15		inactive
40	CG31808	DRSC22962	10		inactive
41	CG31808	DRSC29167	3		inactive
42	Hsf	DRSC07443	4		inactive
43	Hsf	DRSC27700	8		inactive
44	CG10669	DRSC14261	9		inactive
45	CG13722	DRSC08331	5		inactive
46	CG13722	DRSC21616	10		inactive
47	CG13722	DRSC24663	4		inactive

A few values from above:
For “call”, Or65a [DRSC08808] has inactive
Result of Vsx1 [DRSC25808] in “mitotic cells, replicate 1”: 7
For “mitotic cells, replicate 1”, CG10514 [DRSC14249] is entered as 11
Under “mitotic cells, replicate 1”, CG13722 [DRSC08331] is entered as 5
Under “mitotic cells, replicate 1”, r [DRSC39150] reads 15
Under “mitotic cells, replicate 1”, CG31807 [DRSC01550] has 3

The listing continues:
no.	target	dsRNA	mitotic cells, replicate 1	mitotic cells, replicate 2	call
48	Sesn	DRSC04101	10		inactive
49	Sesn	DRSC04102	5		inactive
50	Sesn	DRSC04103	3		inactive
51	pdgy	DRSC19064	5		inactive
52	pdgy	DRSC19341	8		inactive
53	Xbp1	DRSC04553	9		inactive
54	Xbp1	DRSC21624	12		inactive
55	CG18682 (retired record)	DRSC15373	8		inactive
56	CG18682 (retired record)	DRSC15374	9	13	inactive
57	CG6937	DRSC16140	3		inactive
58	CG6937	DRSC23708	5		inactive
59	CG1105	DRSC12528	3		inactive
60	CG1105	DRSC27366	2		inactive
61	CG4377	DRSC04467	8		inactive
62	CG4377	DRSC28406	6		inactive
63	tank	DRSC00461	9		inactive
64	CG31821	DRSC22162	11		inactive
65	knrl	DRSC23245	8		inactive
66	knrl	DRSC28310	3		inactive
67	Osi20	DRSC12568	9		inactive
68	Osi20	DRSC28630	5		inactive
69	Nplp4	DRSC00391	11		inactive
70	NitFhit	DRSC08680	6		inactive
71	NitFhit	DRSC28018	5		inactive
72	Hr78	DRSC11866	4		inactive
73	Hr78	DRSC27893	4		inactive
74	CG5880	DRSC15906	11		inactive
75	CG17906 + alien	DRSC24008	9		inactive
76	gig	DRSC11351	6		inactive
77	gig	DRSC29781	5		inactive
78	Pex5	DRSC18552	13		inactive
79	Pex5	DRSC26136	4		inactive
80	CG34396	DRSC04245	4		inactive
81	CG34396	DRSC04246	7		inactive
82	CG34396	DRSC29674	14		inactive
83	E(spl)m3-HLH	DRSC23160	8		inactive
84	E(spl)m3-HLH	DRSC28511	3		inactive
85	CG30467	DRSC07097	6		inactive
86	CG4770	DRSC15639	11		inactive
87	Ggamma30A	DRSC02715	7		inactive
88	Ggamma30A	DRSC03331	6		inactive
89	CG13376	DRSC17901	12		inactive
90	LS2	DRSC04340	5		inactive
91	Klp64D	DRSC11204	4		inactive
92	CG30156	DRSC04959	5		inactive
93	Trpml + CG42638	DRSC11032	11		inactive
94	CG12115	DRSC17811	13		inactive
95	brv3	DRSC18657	14		inactive
96	brv3	DRSC25544	8		inactive
97	CG15753 (retired record)	DRSC22985	9		inactive
98	CG15382	DRSC00397	5		inactive
99	CG15382	DRSC24805	4		inactive
100	CSN1a	DRSC01951	6		inactive
101	garz	DRSC07193	2		inactive
102	D2hgdh	DRSC18577	4		inactive
103	D2hgdh	DRSC25824	3		inactive
104	CG17636	DRSC20648	7		inactive
105	CG14370	DRSC14832	4		inactive
106	CG17562	DRSC15243	4		inactive
107	CG17134	DRSC02583	7		inactive
108	twin	DRSC15259	5		inactive
109	twin	DRSC15831	5		inactive
110	twin	DRSC21363	16		inactive
111	twin	DRSC29620	6		inactive
